From the supplement of paper PMC11006884
The entries are a selection whose mix differs from that of the whole data set. Single values of this set are uncertain.

Protein sequences, listed by entry. Tags and fused reporters are not part of them. Lines headed by an entry give the natural chain unless they say otherwise; changes in a name come on top.
UniProt P42695: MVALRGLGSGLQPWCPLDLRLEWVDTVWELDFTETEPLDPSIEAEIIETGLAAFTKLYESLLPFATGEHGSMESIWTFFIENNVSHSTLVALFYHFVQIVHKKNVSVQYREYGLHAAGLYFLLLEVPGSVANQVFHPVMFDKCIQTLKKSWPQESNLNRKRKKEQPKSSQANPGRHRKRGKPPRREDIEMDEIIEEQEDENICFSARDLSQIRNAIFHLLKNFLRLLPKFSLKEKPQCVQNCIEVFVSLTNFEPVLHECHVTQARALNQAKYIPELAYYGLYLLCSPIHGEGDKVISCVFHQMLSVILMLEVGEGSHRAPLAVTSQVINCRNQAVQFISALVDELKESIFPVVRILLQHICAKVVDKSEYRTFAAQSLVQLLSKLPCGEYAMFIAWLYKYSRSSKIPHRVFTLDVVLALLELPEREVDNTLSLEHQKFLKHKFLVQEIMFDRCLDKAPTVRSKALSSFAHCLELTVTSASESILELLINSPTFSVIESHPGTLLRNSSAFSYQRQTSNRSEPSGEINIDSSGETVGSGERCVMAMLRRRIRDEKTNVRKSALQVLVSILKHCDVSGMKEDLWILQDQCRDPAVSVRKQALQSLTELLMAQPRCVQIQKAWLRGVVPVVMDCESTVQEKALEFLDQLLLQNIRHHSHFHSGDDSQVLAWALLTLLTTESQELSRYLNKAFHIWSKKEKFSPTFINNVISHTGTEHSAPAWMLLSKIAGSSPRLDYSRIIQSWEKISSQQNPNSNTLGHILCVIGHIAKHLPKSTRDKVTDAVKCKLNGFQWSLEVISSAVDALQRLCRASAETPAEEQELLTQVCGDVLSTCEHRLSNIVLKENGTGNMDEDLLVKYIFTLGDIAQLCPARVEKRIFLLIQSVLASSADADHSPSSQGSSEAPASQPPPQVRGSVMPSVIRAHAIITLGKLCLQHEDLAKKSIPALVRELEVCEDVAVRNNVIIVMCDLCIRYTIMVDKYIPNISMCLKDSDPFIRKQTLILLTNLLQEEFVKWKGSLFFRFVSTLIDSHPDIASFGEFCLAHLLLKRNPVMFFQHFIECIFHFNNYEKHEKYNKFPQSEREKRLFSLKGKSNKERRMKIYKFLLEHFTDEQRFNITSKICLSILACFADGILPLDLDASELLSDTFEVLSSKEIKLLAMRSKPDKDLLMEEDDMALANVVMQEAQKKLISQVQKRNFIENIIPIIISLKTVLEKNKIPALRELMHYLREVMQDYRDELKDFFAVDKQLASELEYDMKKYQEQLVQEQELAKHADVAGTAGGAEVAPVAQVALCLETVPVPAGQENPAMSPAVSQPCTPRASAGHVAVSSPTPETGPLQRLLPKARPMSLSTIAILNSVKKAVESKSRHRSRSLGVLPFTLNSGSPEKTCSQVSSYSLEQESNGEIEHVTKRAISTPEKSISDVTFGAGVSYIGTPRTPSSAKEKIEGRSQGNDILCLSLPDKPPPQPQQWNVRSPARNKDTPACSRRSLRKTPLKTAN
UniProt P39748, whole entry, looked up: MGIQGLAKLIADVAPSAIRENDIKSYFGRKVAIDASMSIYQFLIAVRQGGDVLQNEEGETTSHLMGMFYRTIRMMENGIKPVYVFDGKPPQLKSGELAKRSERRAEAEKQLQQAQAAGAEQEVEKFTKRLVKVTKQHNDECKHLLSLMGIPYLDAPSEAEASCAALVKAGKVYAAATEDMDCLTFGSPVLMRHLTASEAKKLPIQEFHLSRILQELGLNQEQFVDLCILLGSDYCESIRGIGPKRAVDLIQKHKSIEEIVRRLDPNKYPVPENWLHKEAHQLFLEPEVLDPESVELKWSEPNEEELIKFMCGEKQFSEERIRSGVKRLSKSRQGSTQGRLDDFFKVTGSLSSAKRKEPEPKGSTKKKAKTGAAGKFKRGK
UniProt P31939: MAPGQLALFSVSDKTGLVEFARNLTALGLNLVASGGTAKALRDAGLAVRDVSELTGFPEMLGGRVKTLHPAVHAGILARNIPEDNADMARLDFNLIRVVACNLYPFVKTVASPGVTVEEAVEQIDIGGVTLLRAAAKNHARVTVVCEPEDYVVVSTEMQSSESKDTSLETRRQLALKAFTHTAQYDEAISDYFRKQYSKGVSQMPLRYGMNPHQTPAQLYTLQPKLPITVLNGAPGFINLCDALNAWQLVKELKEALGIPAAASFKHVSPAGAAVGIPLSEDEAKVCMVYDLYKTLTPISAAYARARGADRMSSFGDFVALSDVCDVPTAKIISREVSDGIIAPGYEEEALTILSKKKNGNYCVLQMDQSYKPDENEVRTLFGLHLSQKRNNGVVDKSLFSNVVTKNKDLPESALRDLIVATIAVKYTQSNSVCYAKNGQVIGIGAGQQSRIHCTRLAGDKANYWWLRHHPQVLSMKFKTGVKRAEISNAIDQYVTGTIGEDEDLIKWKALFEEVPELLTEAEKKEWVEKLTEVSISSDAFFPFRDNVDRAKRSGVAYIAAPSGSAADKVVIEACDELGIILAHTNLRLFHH
UniProt P35249, whole entry: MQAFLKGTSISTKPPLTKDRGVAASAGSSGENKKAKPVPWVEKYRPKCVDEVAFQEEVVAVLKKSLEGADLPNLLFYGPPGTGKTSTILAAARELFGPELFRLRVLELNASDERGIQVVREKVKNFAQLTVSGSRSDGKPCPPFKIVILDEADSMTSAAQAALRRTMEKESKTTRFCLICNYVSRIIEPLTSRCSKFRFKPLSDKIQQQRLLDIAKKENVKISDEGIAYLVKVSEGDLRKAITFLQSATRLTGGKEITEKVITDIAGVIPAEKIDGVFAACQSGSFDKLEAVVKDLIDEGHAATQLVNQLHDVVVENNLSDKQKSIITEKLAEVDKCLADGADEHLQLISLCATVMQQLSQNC
UniProt P35998: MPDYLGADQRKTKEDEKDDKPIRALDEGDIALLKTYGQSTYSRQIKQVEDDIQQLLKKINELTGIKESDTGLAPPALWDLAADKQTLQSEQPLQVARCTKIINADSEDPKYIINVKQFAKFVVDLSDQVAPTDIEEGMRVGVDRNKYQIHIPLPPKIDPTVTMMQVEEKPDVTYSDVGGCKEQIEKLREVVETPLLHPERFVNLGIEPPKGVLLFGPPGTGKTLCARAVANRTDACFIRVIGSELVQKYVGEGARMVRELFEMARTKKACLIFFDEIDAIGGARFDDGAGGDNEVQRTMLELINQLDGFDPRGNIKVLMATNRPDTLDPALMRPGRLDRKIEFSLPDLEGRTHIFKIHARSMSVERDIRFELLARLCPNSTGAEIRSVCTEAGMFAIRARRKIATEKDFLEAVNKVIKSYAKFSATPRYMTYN
UniProt P34932: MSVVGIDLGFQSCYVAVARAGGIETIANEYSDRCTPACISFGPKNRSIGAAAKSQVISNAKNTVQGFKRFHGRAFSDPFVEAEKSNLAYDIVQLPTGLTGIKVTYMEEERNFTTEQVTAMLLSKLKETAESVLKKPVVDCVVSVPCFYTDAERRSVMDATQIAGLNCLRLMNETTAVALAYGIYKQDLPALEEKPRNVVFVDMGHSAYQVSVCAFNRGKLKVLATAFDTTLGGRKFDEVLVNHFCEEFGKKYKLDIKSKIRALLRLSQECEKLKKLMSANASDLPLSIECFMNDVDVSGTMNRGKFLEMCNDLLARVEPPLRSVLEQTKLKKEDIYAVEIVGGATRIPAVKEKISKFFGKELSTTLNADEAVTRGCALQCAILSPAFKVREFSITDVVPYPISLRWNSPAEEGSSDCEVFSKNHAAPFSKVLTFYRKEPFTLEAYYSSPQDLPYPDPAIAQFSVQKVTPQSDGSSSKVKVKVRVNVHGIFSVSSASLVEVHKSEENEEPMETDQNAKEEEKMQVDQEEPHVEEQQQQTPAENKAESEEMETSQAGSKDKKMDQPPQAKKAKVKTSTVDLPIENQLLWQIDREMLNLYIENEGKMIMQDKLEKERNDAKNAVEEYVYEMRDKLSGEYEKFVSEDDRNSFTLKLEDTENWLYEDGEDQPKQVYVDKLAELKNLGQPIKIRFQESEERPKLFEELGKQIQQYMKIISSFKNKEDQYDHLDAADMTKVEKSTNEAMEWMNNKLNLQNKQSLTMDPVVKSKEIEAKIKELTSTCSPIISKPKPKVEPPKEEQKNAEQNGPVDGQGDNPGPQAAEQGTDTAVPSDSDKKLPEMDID
UniProt P33992: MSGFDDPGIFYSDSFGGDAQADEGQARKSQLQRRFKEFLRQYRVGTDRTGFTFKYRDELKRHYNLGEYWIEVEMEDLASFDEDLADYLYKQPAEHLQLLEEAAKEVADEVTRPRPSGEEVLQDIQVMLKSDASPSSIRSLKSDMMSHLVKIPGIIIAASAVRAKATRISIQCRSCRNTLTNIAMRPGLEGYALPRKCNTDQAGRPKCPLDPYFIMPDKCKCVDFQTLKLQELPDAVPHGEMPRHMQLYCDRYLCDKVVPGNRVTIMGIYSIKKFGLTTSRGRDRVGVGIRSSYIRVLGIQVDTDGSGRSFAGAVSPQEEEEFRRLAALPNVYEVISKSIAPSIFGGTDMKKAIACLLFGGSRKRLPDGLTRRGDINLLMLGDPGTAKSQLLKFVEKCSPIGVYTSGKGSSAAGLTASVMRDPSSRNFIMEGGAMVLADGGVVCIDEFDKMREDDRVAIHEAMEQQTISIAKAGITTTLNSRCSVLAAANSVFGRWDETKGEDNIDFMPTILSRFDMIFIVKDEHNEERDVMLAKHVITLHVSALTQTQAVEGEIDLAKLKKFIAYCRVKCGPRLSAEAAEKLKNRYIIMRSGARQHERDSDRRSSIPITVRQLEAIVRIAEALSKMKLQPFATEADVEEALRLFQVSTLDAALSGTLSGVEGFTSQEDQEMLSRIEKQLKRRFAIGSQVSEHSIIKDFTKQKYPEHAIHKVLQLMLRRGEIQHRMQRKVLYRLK
UniProt P41252: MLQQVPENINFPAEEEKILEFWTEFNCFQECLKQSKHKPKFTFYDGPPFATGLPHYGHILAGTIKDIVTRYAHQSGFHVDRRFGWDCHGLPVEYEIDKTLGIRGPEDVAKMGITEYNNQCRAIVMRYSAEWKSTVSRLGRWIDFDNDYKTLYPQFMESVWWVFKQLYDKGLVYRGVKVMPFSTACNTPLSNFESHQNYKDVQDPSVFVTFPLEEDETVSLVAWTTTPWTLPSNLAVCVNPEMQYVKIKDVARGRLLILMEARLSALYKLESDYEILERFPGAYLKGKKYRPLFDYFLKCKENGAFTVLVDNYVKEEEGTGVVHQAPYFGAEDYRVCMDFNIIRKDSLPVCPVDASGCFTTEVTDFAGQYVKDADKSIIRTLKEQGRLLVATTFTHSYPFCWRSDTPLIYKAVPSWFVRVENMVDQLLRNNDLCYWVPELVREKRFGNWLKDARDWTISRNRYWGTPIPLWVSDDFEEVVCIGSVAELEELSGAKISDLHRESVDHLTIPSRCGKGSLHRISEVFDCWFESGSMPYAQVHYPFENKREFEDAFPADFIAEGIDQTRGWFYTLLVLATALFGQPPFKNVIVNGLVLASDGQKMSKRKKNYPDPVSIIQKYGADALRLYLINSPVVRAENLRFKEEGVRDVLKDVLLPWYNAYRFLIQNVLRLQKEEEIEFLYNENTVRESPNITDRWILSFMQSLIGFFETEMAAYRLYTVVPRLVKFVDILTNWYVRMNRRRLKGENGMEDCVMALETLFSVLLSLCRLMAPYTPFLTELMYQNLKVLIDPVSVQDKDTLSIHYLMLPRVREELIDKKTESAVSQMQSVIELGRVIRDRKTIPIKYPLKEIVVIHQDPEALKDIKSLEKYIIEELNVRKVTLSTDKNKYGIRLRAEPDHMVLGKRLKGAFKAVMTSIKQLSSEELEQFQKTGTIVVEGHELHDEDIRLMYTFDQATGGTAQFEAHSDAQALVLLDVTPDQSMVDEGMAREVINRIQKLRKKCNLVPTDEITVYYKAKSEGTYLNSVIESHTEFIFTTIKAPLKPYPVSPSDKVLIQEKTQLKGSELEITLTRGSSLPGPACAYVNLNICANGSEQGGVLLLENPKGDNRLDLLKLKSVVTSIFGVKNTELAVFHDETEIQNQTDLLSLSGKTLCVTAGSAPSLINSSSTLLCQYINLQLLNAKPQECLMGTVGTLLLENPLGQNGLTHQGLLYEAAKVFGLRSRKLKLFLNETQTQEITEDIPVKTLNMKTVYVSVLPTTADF
UniProt P35250, whole entry, looked up: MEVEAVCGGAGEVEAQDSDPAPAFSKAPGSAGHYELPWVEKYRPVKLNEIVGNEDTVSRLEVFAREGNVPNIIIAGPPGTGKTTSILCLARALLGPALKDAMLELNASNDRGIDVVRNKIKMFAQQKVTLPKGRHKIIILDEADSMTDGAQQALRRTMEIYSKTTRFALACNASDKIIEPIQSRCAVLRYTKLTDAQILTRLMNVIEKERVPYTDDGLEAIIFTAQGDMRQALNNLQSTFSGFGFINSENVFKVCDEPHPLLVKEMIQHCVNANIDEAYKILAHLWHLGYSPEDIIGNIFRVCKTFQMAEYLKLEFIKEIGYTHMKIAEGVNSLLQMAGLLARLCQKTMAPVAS

compound: COC(=O)/C=C/c1ccccc1 [methyl cinnamate]; experiment: log2 ratio of iodoacetamide-alkyne labeling of the cysteine site, DMSO over compound (competition); higher = stronger covalent engagement of the cysteine by the compound, active = 1 or more; settings: 500 µM; treatment time 1 h; system: HEK293T cell lysate
In short: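 Three replicates, each with duplicate channels, were prepared from HEK293T lysate (2 mg/mL) treated with vehicle or electrophile at 500 µM for 1 h at ambient temperature. Iodoacetamide alkyne was then applied for 1 h, and samples were clicked to sCIP-TMT reagents, pooled, trypsin-digested overnight at 37 °C, enriched on streptavidin, acid-eluted and analysed on Orbitrap Eclipse LC-MS/MS with FAIMS, with FragPipe quantification. The log2 competition ratio per cysteine is the mean control-channel divided by the mean compound-channel reporter intensity. Cysteines quantified in only one replicate were left out.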

log2 ratio of iodoacetamide-alkyne labeling, inactive:
CUX1 C802 (UniProt P39880) 0.392
LRPPRC C484 (UniProt P42704) 0.00399
ADD1 C68 (UniProt P35611) 0.0601
NCAPD3 C1316 (UniProt P42695) 0.339
MATR3 C563 (UniProt P43243) 0.199
SHMT2 C119 (UniProt P34897) -0.0143
MDH2 C128 (UniProt P40926) -0.116
HMOX2 C127 (UniProt P30519) 0.0666
SLC7A1 C628 (UniProt P30825) 0.227
FEN1 C141 (UniProt P39748) 0.67
SDHA C89 (UniProt P31040) -0.0124
EPS15 C657 (UniProt P42566) 0.19
NCAPD3 C1456 (UniProt P42695) 0.377
ATIC C575 (UniProt P31939) 0.154
RPL3 C336 (UniProt P39023) 0.177
RFC4 C48 (UniProt P35249) 0.304
DUT C222 (UniProt P33316) 0.183
PSMC2 C236 (UniProt P35998) 0.0708
RFC3 C32 (UniProt P40938) 0.106
MCM4 C162 (UniProt P33991) 0.112
MCM4 C509 (UniProt P33991) 0.189
NCAPD3 C1389 (UniProt P42695) -0.104
HSPA4 C417 (UniProt P34932) 0.281
UQCRC1 C268 (UniProt P31930) 0.0729
UniProt P42771_C72 0.318
ATIC C101 (UniProt P31939) 0.0905
HSPA4 C290 (UniProt P34932) 0.0552
DNAJA1 C149 (UniProt P31689) 0.224
MCM5 C221 (UniProt P33992) 0.212
CASP3 C184 (UniProt P42574) 0.15
ADD1 C430 (UniProt P35611) 0.236
AKT2 C311 (UniProt P31751) 0.348
PDIA3 C406 (UniProt P30101) 0.154
HNRNPH1 C22 (UniProt P31943) 0.0581
IARS C185 (UniProt P41252) -0.0176
COIL C170 (UniProt P38432) 0.296
RFC2 C255 (UniProt P35250) -0.0024
